Laboratory results published in the supplement of paper PMC12823440, “Inhibitors supercharge kinase turnover through native proteolytic circuits” (Nature, 2025).
Counter-ions that a name gives are not always drawn. This is one part of the list. The calls rarely recur for the same compound in another form.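 Kinases, fused to nanoluciferase, were expressed in K562 cells; luminescence was measured every 4 h from 2 to 18 h as percent of control (DMSO = 100%, positive control = 0%). A time point is decreased if signal falls significantly (2 sigma). Hits were called by the authors by a rule that is not shown; the count of time points alone does not decide it.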

Chains of the proteins cited; added tags and fusions are not shown.
UniProt P06241, whole entry, looked up: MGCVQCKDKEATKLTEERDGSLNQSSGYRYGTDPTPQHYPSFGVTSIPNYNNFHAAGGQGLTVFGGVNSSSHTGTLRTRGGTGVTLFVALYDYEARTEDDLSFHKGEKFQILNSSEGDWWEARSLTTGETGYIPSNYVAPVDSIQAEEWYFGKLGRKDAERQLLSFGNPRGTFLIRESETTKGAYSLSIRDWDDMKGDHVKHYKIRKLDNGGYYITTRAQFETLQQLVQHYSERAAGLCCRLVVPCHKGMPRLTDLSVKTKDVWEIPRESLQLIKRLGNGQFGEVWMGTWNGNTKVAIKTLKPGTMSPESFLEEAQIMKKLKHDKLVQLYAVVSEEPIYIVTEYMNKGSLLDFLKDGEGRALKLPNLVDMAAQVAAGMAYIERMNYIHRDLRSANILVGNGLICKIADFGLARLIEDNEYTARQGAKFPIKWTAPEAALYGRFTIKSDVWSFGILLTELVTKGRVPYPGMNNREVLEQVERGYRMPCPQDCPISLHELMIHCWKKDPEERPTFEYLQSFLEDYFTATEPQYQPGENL

Molecular target: FYN (UniProt P06241)
Assay: number of time points (of 5) at which kinase-Nluc abundance scored as decreased, DMSO-normalised (count); higher = more persistent destabilization
Settings: K562; 2-18 h

| SMILES | number of time points |
| --- | --- |
| Cc1cnc(Cl)nc1-c1ccc(N(Cc2ccc(CNC(=O)C(F)F)cc2)C(=O)c2ccc(O)cc2O)cc1 (10 µM) | 0 |
| COc1cc2c(cc1OC)[C@@H]1C(=O)c3ccc4c(c3O[C@@H]1CO2)C=CC(C)(C)O4 [Deguelin] (10 µM) | 0 |
| CC(C)(CCCCCC(O)CCCCCC(C)(C)C(=O)O)C(=O)O [Bempedoic acid] (10 µM) | 0 |
| COc1cc2nnc(C(N)=O)c(Nc3ccc(C)cc3F)c2cc1N1CCN(CCO)CC1 (2.5 µM) | 0 |
| O=C(Nc1ccc(Cl)cc1)C1CN(C(=O)c2cccc(-c3ccco3)c2)CC(F)(F)C1 (stereo not drawn) (2.5 µM) | 0 |
| CC(=O)O[C@@H]1[C@@H](OC(C)=O)[C@@H](O)[C@H](Oc2c(-c3ccc(O)cc3)oc3cc(O)cc(O)c3c2=O)O[C@H]1C (10 µM) | 0 |
| COc1cc2nc(-c3cc(F)ccc3O)nc(N[C@@H]3CNC[C@H]3C(C)(C)O)c2cc1OC (2.5 µM) | 0 |
| C=CC(=O)Nc1cccc(Oc2nc(Nc3ccc(N4CCN(C)CC4)cc3OC)ncc2Cl)c1 (10 µM) | 0 |
| C=CC(=O)Nc1cc(Nc2nccc(-c3cn(C)c4ccccc34)n2)c(OCC(F)(F)F)nc1N(C)CCNC [AST5902  (trimesylate)] (2.5 µM) | 3 |
| O=C1C=CC2=C3c4cc(O)c(O)cc4CC3(O)COC2=C1O (stereo not drawn) [Hematein] (10 µM) | 0 |
| CCC(F)(F)c1cc(N2CCC(S(C)(=O)=O)CC2)nc2sc(C(N)=O)c(N)c12 (10 µM) | 0 |
| Cn1cc(C2=C(c3ccc(Cl)cc3Cl)C(=O)NC2=O)c2ccccc21 (10 µM) | 0 |
| CCOC(=O)c1c(N2CCc3ccc(OC)cc3C2)oc(C=C2C=Nc3ncccc32)c1O (10 µM) | 0 |
| O=C(COc1ccc(Cl)cc1)NC1CCC(NC(=O)COc2ccc(Cl)cc2)CC1 (stereo not drawn) [ISRIB (trans-isomer)] (10 µM) | 0 |
| COc1ccc(CCNCc2ccc(OCc3ccc(Cl)nc3)c(OC)c2)cc1OC [SBE13 (Hydrochloride)] (10 µM) | 0 |
| Cc1cccc(CC(=O)N2CCc3c2ccc(-c2cn(C)c4ncnc(N)c24)c3F)n1 (10 µM) | 0 |
| COc1cc(N2CCC(N3CCN(C)CC3)CC2)ccc1Nc1ncnc(Nc2ccccc2S(=O)(=O)C(C)C)n1 (10 µM) | 0 |
| CC(C)(Oc1ccc(Cl)cc1)C(=O)Nc1ccc(OCc2ccc(C#N)cc2)cc1 [AMPK activator 4] (10 µM) | 0 |
| Cc1cc(N2CCOCC2)ccc1Nc1nc(NC2CCCCC2)c2[nH]cnc2n1 (10 µM) | 0 |

| SMILES | number of time points |
| --- | --- |
| COC(=O)N1CCN(C2CCC(Nc3nc(Nc4cnn(C)c4)nc4ccc(CC#N)nc34)CC2)CC1 (stereo not drawn) (10 µM) | 0 |
| CN(C)CCn1cc2cc(NC(=O)c3cccc(C(F)(F)F)n3)c(C(C)(C)O)cc2n1 (10 µM) | 0 |
| CCOc1cc(N2CCC(O)CC2)ccc1Nc1ncc2c(n1)N(C1CCCC1)CCC(=O)N2C (2.5 µM) | 0 |
| CCC[C@H](C)Oc1nc(N)c2[nH]c(=O)n(CCCCCN3CCCCC3)c2n1 (10 µM) | 0 |
| Fc1ccc(-c2nc3n(c2-c2ccncc2)CCS3)cc1 (10 µM) | 0 |
| CC(ONC(=O)c1cc(C(F)(F)F)cc(C(F)(F)F)c1)C(=O)Nc1ccc(Cl)cc1 (stereo not drawn) (2.5 µM) | 0 |
| O=C(Nc1ccccc1C(=O)NC1CCCCNC1=O)c1cc2ccccc2s1 (stereo not drawn) (10 µM) | 0 |
| N#CC(=C(/N)Sc1ccccc1N)/C(C#N)=C(\N)Sc1ccccc1N (10 µM) | 0 |
| Nc1ccc(O)c(C(=O)O)c1 [5-Aminosalicylic Acid] (10 µM) | 0 |
| CNCc1ccccc1Sc1cccc2ccccc12 [IFN alpha-IFNAR-IN-1 (hydrochloride)] (10 µM) | 0 |
| CCCCNc1ncc2c(-c3ccc(F)cc3)nn(CC3CCC(N)CC3)c2n1 (stereo not drawn) (2.5 µM) | 1 |
| Cc1ncsc1-c1ccc(CNC(=O)[C@@H]2C[C@@H](O)CN2C(=O)[C@@H](NC(=O)COCCOc2ccc(-c3cc(Nc4ccc(OC(F)(F)F)cc4)ncn3)cc2)C(C)(C)C)cc1 (2.5 µM) | 1 |
| Cn1cnc2c(F)c(Nc3ccc(Br)cc3F)c(C(=O)NOCCO)cc21 [Binimetinib] (10 µM) | 4 |
| O=C1NC(=O)C(Cc2c[nH]c3c(Cl)cccc23)N1 (stereo not drawn) [Necroptosis-IN-1] (10 µM) | 0 |
| C=CC(=O)N1CCC(c2ccc(C(N)=O)c(-c3ccc(Oc4ccccc4)cc3)n2)CC1 [Orelabrutinib] (2.5 µM) | 0 |
| CN1C(=O)N[C@@H](Cc2c[nH]c3c(Cl)cccc23)C1=O [Necrostatin 2 (S enantiomer)] (10 µM) | 0 |
| N#Cc1cc(-c2ccnc(Nc3ccc(N4CCOCC4)cc3)n2)ccc1OC1CCOCC1 (10 µM) | 0 |
| COc1cccc(-c2cc(=O)c3ccccc3o2)c1N (10 µM) | 0 |
| Nc1ccc(Sc2nc3ccccc3s2)c(Cl)c1 [KRAS inhibitor-9] (10 µM) | 0 |

2 records picked at random from those above:

| SMILES | number of time points |
| --- | --- |
| CN(C)CCn1cc2cc(NC(=O)c3cccc(C(F)(F)F)n3)c(C(C)(C)O)cc2n1 (10 µM) | 0 |
| O=C1C=CC2=C3c4cc(O)c(O)cc4CC3(O)COC2=C1O (stereo not drawn) [Hematein] (10 µM) | 0 |
